# From the supplement of paper PMC8728848
# The list shows a part of the results.
# B1: EUL D1A first (Oryza sativa) (protein)
# chain: MFGFGHHHNQAPAAPSDPNQIFKIFCRANENYCLTVRDSAVVLAPVNPKDEHQHWFKDMRFSTKVKDGEGMPAFALVNKATGLAVKHSLGQSHPVKLVPFNPEYEDASVLWTESKDVGKGFRCIRMVNNTRLNLDAFHGDKDHGGVRDGTTVVLWEWCKGDNQSWKILPWGPEAHSSSPGAATILEQKLISEEDLNSAVDHHHHHH
# What was measured:
# Test in all cases: glycan array binding signal (z-score within array); higher = stronger binding
# Conditions in all cases: glycan notation: IUPAC condensed, linker removed
# [1] = biological target: Fuc(a1-3)[Gal3S(b1-4)]GlcNAc6S
# Summary of the method: (§1)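 Glycan array binding is given as a within-array Z-score, which can be read as non-binding when negative. The arrays, 3228 of them, came from the Consortium for Functional Glycomics database and were retained only where the protein sequence was available. Z-scores were averaged across arrays of the same protein sequence at different concentrations or buffers and across linkers.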
# [2] = biological target: Fuc(a1-3)[GalNAc(b1-4)]GlcNAc
# Summary of the method: as §1
# [3] = biological target: Fuc(a1-3)[GalNAc(b1-4)]GlcNAc6S
# Summary of the method: as §1
# Fuc(a1-4)GlcNAc = biological target: Fuc(a1-4)GlcNAc
# Summary of the method: as §1
# Fuc(b1-3)GlcNAc = biological target: Fuc(b1-3)GlcNAc
# Summary of the method: as §1
# Gal(a1-2)Gal = biological target: Gal(a1-2)Gal
# Summary of the method: as §1
# Gal(a1-3)Gal = biological target: Gal(a1-3)Gal
# Summary of the method: as §1
# Gal(a1-3)Gal(b1-3)GlcNAc = biological target: Gal(a1-3)Gal(b1-3)GlcNAc
# Summary of the method: as §1
# [4] = biological target: Gal(a1-3)Gal(b1-3)GlcNAc(b1-2)Man
# Summary of the method: as §1
# [5] = biological target: Gal(a1-3)Gal(b1-3)GlcNAc(b1-2)Man(a1-3)[Gal(a1-3)Gal(b1-3)GlcNAc(b1-2)Man(a1-6)]Man(b1-4)GlcNAc(b1-4)GlcNAc
# Summary of the method: as §1
# [6] = biological target: Gal(a1-3)Gal(b1-3)GlcNAc(b1-3)GalNAc
# Summary of the method: as §1
# [7] = biological target: Gal(a1-3)Gal(b1-3)GlcNAc(b1-6)GalNAc
# Summary of the method: as §1
# [8] = biological target: Gal(a1-3)Gal(b1-3)[Fuc(a1-4)]GlcNAc(b1-2)Man(a1-3)[Gal(a1-3)Gal(b1-3)[Fuc(a1-4)]GlcNAc(b1-2)Man(a1-6)]Man(b1-4)GlcNAc(b1-4)GlcNAc
# Summary of the method: as §1
# Gal(a1-3)Gal(b1-4)Glc = biological target: Gal(a1-3)Gal(b1-4)Glc
# Summary of the method: as §1
# Gal(a1-3)Gal(b1-4)GlcNAc = biological target: Gal(a1-3)Gal(b1-4)GlcNAc
# Summary of the method: as §1
# [9] = biological target: Gal(a1-3)Gal(b1-4)GlcNAc(b1-2)Man
# Summary of the method: as §1
# [10] = biological target: Gal(a1-3)Gal(b1-4)GlcNAc(b1-2)Man(a1-3)[Gal(a1-3)Gal(b1-4)GlcNAc(b1-2)Man(a1-6)]Man(b1-4)GlcNAc(b1-4)GlcNAc
# Summary of the method: as §1
# [11] = biological target: Gal(a1-3)Gal(b1-4)GlcNAc(b1-3)GalNAc
# Summary of the method: as §1
# [12] = biological target: Gal(a1-3)Gal(b1-4)GlcNAc(b1-6)GalNAc
# Summary of the method: as §1
# [13] = biological target: Gal(a1-3)Gal(b1-4)[Fuc(a1-3)]GlcNAc
# Summary of the method: as §1
# [14] = biological target: Gal(a1-3)Gal(b1-4)[Fuc(a1-3)]GlcNAc(b1-2)Man(a1-3)[Gal(a1-3)Gal(b1-4)[Fuc(a1-3)]GlcNAc(b1-2)Man(a1-6)]Man(b1-4)GlcNAc(b1-4)GlcNAc
# Summary of the method: as §1
# Gal(a1-3)GalNAc = biological target: Gal(a1-3)GalNAc
# Summary of the method: as §1
# [15] = biological target: Gal(a1-3)[Gal(a1-4)]Gal(b1-4)GlcNAc
# Summary of the method: as §1
# [16] = biological target: Gal(a1-4)Gal(b1-3)GlcNAc(b1-2)Man(a1-3)[Gal(a1-4)Gal(b1-3)GlcNAc(b1-2)Man(a1-6)]Man(b1-4)GlcNAc(b1-4)GlcNAc
# Summary of the method: as §1
# Gal(a1-4)Gal(b1-4)Glc = biological target: Gal(a1-4)Gal(b1-4)Glc
# Summary of the method: as §1
# Gal(a1-4)Gal(b1-4)GlcNAc = biological target: Gal(a1-4)Gal(b1-4)GlcNAc
# Summary of the method: as §1
# [17] = biological target: Gal(a1-4)Gal(b1-4)GlcNAc(b1-2)Man(a1-3)[Gal(a1-4)Gal(b1-4)GlcNAc(b1-2)Man(a1-6)]Man(b1-4)GlcNAc(b1-4)GlcNAc
# Summary of the method: as §1
# [18] = biological target: Gal(a1-4)Gal(b1-4)GlcNAc(b1-3)Gal(b1-4)Glc
# Summary of the method: as §1
# Gal(a1-4)GlcNAc = biological target: Gal(a1-4)GlcNAc
# Summary of the method: as §1
# Gal(a1-6)Glc = biological target: Gal(a1-6)Glc
# Summary of the method: as §1
# Gal(b1-2)Gal = biological target: Gal(b1-2)Gal
# Summary of the method: as §1
# Gal(b1-3)Gal = biological target: Gal(b1-3)Gal
# Summary of the method: as §1
# Gal(b1-3)Gal(b1-4)GlcNAc = biological target: Gal(b1-3)Gal(b1-4)GlcNAc
# Summary of the method: as §1
# Gal(b1-3)GalNAc = biological target: Gal(b1-3)GalNAc
# Summary of the method: as §1
# [19] = biological target: Gal(b1-3)GalNAc(a1-3)[Fuc(a1-2)]Gal(b1-4)Glc
# Summary of the method: as §1
# [20] = biological target: Gal(b1-3)GalNAc(a1-3)[Fuc(a1-2)]Gal(b1-4)GlcNAc
# Summary of the method: as §1
# Gal(b1-3)GalNAc(b1-3)Gal = biological target: Gal(b1-3)GalNAc(b1-3)Gal
# Summary of the method: as §1
# [21] = biological target: Gal(b1-3)GalNAc(b1-3)Gal(a1-4)Gal(b1-4)Glc
# Summary of the method: as §1
# [22] = biological target: Gal(b1-3)GalNAc(b1-4)Gal(b1-4)Glc
# Summary of the method: as §1
# [23] = biological target: Gal(b1-3)GalNAc(b1-4)[Neu5Ac(a2-3)]Gal(b1-4)Glc
# Summary of the method: as §1
# Gal(b1-3)GlcNAc = biological target: Gal(b1-3)GlcNAc
# Summary of the method: as §1
# [24] = biological target: Gal(b1-3)GlcNAc(a1-3)Gal(b1-4)GlcNAc
# Summary of the method: as §1
# [25] = biological target: Gal(b1-3)GlcNAc(a1-6)Gal(b1-4)GlcNAc
# Summary of the method: as §1
# Gal(b1-3)GlcNAc(b1-2)Man = biological target: Gal(b1-3)GlcNAc(b1-2)Man
# Summary of the method: as §1
# [26] = biological target: Gal(b1-3)GlcNAc(b1-2)Man(a1-3)[Gal(b1-3)GlcNAc(b1-2)Man(a1-6)]Man(b1-4)GlcNAc(b1-4)GlcNAc
# Summary of the method: as §1
binder,measurement,setting,value
B1,glycan array binding signal (z-score),[1],-0.544
same,glycan array binding signal (z-score),[2],1.05
same,glycan array binding signal (z-score),[3],-1.36
same,glycan array binding signal (z-score),Fuc(a1-4)GlcNAc,-0.654
same,glycan array binding signal (z-score),Fuc(b1-3)GlcNAc,-0.447
same,glycan array binding signal (z-score),Gal(a1-2)Gal,-0.848
same,glycan array binding signal (z-score),Gal(a1-3)Gal,-0.25
same,glycan array binding signal (z-score),Gal(a1-3)Gal(b1-3)GlcNAc,-0.691
same,glycan array binding signal (z-score),[4],-0.994
same,glycan array binding signal (z-score),[5],3.31
same,glycan array binding signal (z-score),[6],0.676
same,glycan array binding signal (z-score),[7],0.341
same,glycan array binding signal (z-score),[8],0.805
same,glycan array binding signal (z-score),Gal(a1-3)Gal(b1-4)Glc,0.141
same,glycan array binding signal (z-score),Gal(a1-3)Gal(b1-4)GlcNAc,-0.008
same,glycan array binding signal (z-score),[9],-0.173
same,glycan array binding signal (z-score),[10],-0.282
same,glycan array binding signal (z-score),[11],-0.604
same,glycan array binding signal (z-score),[12],-0.214
same,glycan array binding signal (z-score),[13],-0.411
same,glycan array binding signal (z-score),[14],1.55
same,glycan array binding signal (z-score),Gal(a1-3)GalNAc,-0.91
same,glycan array binding signal (z-score),[15],-0.456
same,glycan array binding signal (z-score),[16],2.2
same,glycan array binding signal (z-score),Gal(a1-4)Gal(b1-4)Glc,0.4
same,glycan array binding signal (z-score),Gal(a1-4)Gal(b1-4)GlcNAc,0.261
same,glycan array binding signal (z-score),[17],-0.21
same,glycan array binding signal (z-score),[18],0.024
same,glycan array binding signal (z-score),Gal(a1-4)GlcNAc,-0.638
same,glycan array binding signal (z-score),Gal(a1-6)Glc,0.718
same,glycan array binding signal (z-score),Gal(b1-2)Gal,0.765
same,glycan array binding signal (z-score),Gal(b1-3)Gal,-0.947
same,glycan array binding signal (z-score),Gal(b1-3)Gal(b1-4)GlcNAc,0.168
same,glycan array binding signal (z-score),Gal(b1-3)GalNAc,-0.735
same,glycan array binding signal (z-score),[19],-1.67
same,glycan array binding signal (z-score),[20],1.02
same,glycan array binding signal (z-score),Gal(b1-3)GalNAc(b1-3)Gal,-0.277
same,glycan array binding signal (z-score),[21],-0.207
same,glycan array binding signal (z-score),[22],0.305
same,glycan array binding signal (z-score),[23],-0.052
same,glycan array binding signal (z-score),Gal(b1-3)GlcNAc,-0.766
same,glycan array binding signal (z-score),[24],0.125
same,glycan array binding signal (z-score),[25],-0.2
same,glycan array binding signal (z-score),Gal(b1-3)GlcNAc(b1-2)Man,0.139
same,glycan array binding signal (z-score),[26],-0.317

# Another view of some results above.
binder	measurement	setting	value
B1	glycan array binding signal (z-score)	Gal(a1-4)Gal(b1-4)GlcNAc	0.261
same	glycan array binding signal (z-score)	[17]	-0.21
same	glycan array binding signal (z-score)	[18]	0.024
same	glycan array binding signal (z-score)	Gal(a1-4)GlcNAc	-0.638
same	glycan array binding signal (z-score)	Gal(a1-6)Glc	0.718
same	glycan array binding signal (z-score)	Gal(b1-2)Gal	0.765
same	glycan array binding signal (z-score)	Gal(b1-3)Gal	-0.947
same	glycan array binding signal (z-score)	Gal(b1-3)Gal(b1-4)GlcNAc	0.168
same	glycan array binding signal (z-score)	Gal(b1-3)GalNAc	-0.735
same	glycan array binding signal (z-score)	[19]	-1.67
same	glycan array binding signal (z-score)	[20]	1.02
same	glycan array binding signal (z-score)	Gal(b1-3)GalNAc(b1-3)Gal	-0.277
